Assay results reported in paper PMC8213057, “Targeting ALK2: An Open Science Approach to Developing Therapeutics for the Treatment of Diffuse Intrinsic Pontine Glioma” (Journal of Medicinal Chemistry, 2020).

Experiments:
CAMKK1 = CAMKK1 (Homo sapiens, UniProt Q8N5S9); details: 1 μM; Run 1, Run 2
DYRK3 = DYRK3 (Homo sapiens, UniProt O43781); details: 1 μM; Run 1, Run 2
EPHA1 = EPHA1 (Homo sapiens, UniProt P21709); details: 1 μM; Run 1, Run 2
EPHB3 = EPHB3 (Homo sapiens, UniProt P54753); details: 1 μM; Run 1, Run 2
ERK7/MAPK15 = ERK7/MAPK15 (Homo sapiens, UniProt Q8TD08); details: 1 μM; Run 1, Run 2
ERN1/IRE1 = ERN1/IRE1 (Homo sapiens, UniProt O75460); details: 1 μM; Run 1, Run 2
GRK4 = GRK4 (Homo sapiens, UniProt P32298); details: 1 μM; Run 1, Run 2
GSK3a = GSK3a (Homo sapiens, UniProt P49840); details: 1 μM; Run 1, Run 2
LKB1 = LKB1 (Homo sapiens, UniProt Q15831); details: 1 μM; Run 1, Run 2
MLCK/MYLK = MLCK/MYLK (Homo sapiens, UniProt Q15746); details: 1 μM; Run 1, Run 2
NIM1 = NIM1 (Homo sapiens, UniProt Q8IY84); details: 1 μM; Run 1, Run 2
P38a/MAPK14 = P38a/MAPK14 (Homo sapiens, UniProt Q16539); details: 1 μM; Run 1, Run 2
p70S6K/RPS6KB1 = p70S6K/RPS6KB1 (Homo sapiens, UniProt P23443); details: 1 μM; Run 1, Run 2
PAK3 = PAK3 (Homo sapiens, UniProt O75914); details: 1 μM; Run 1, Run 2
PASK = PASK (Homo sapiens, UniProt Q96RG2); details: 1 μM; Run 1, Run 2
PIM3 = PIM3 (Homo sapiens, UniProt Q86V86); details: 1 μM; Run 1, Run 2
PKAcb = PKAcb (Homo sapiens, UniProt P22694); details: 1 μM; Run 1, Run 2
PKCnu/PRKD3 = PKCnu/PRKD3 (Homo sapiens, UniProt O94806); details: 1 μM; Run 1, Run 2
RAF1 = RAF1 (Homo sapiens, UniProt P04049); details: 1 μM; Run 1, Run 2
SBK1 = SBK1 (Homo sapiens, UniProt Q52WX2); details: 1 μM; Run 1, Run 2
TAOK3/JIK = TAOK3/JIK (Homo sapiens, UniProt Q9H2K8); details: 1 μM; Run 1, Run 2
WNK3 = WNK3 (Homo sapiens, UniProt Q9BYP7); details: 1 μM; Run 1, Run 2
ABL1 = ABL1 (Homo sapiens, UniProt P00519); assay: biochemical; details: read-out: % enzyme activity, 1 μM; Run 1, Run 2
BMX/ETK = BMX/ETK (Homo sapiens, UniProt P51813); assay: biochemical; details: read-out: % enzyme activity, 1 μM; Run 1, Run 2
CDK6/cyclin D3 = CDK6/cyclin D3 (Homo sapiens, UniProt Q00534); assay: biochemical; details: read-out: % enzyme activity, 1 μM; Run 1, Run 2
CSK = CSK (Homo sapiens, UniProt P41240); assay: biochemical; details: read-out: % enzyme activity, 1 μM; Run 1, Run 2
ERK5/MAPK7 = ERK5/MAPK7 (Homo sapiens, UniProt Q13164); assay: biochemical; details: read-out: % enzyme activity, 1 μM; Run 1, Run 2
GCK/MAP4K2 = GCK/MAP4K2 (Homo sapiens, UniProt Q12851); assay: biochemical; details: read-out: % enzyme activity, 1 μM; Run 1, Run 2
HIPK4 = HIPK4 (Homo sapiens, UniProt Q8NE63); assay: biochemical; details: read-out: % enzyme activity, 1 μM; Run 1, Run 2
JAK2 = JAK2 (Homo sapiens, UniProt O60674); assay: biochemical; details: read-out: % enzyme activity, 1 μM; Run 1, Run 2
MAPKAPK5/PRAK = MAPKAPK5/PRAK (Homo sapiens, UniProt Q8IW41); assay: biochemical; details: read-out: % enzyme activity, 1 μM; Run 1, Run 2
MEKK1 = MEKK1 (Homo sapiens, UniProt Q13233); assay: biochemical; details: read-out: % enzyme activity, 1 μM; Run 1, Run 2
MRCKb/CDC42BPB = MRCKb/CDC42BPB (Homo sapiens, UniProt Q9Y5S2); assay: biochemical; details: read-out: % enzyme activity, 1 μM; Run 1, Run 2
MSK2/RPS6KA4 = MSK2/RPS6KA4 (Homo sapiens, UniProt O75676); assay: biochemical; details: read-out: % enzyme activity, 1 μM; Run 1, Run 2
PIM2 = PIM2 (Homo sapiens, UniProt Q9P1W9); assay: biochemical; details: read-out: % enzyme activity, 1 μM; Run 1, Run 2
PKCa = PKCa (Homo sapiens, UniProt P17252); assay: biochemical; details: read-out: % enzyme activity, 1 μM; Run 1, Run 2
PKCeta = PKCeta (Homo sapiens, UniProt P24723); assay: biochemical; details: read-out: % enzyme activity, 1 μM; Run 1, Run 2
PKCtheta = PKCtheta (Homo sapiens, UniProt Q04759); assay: biochemical; details: read-out: % enzyme activity, 1 μM; Run 1, Run 2
PLK3 = PLK3 (Homo sapiens, UniProt Q9H4B4); assay: biochemical; details: read-out: % enzyme activity, 1 μM; Run 1, Run 2
RON/MST1R = RON/MST1R (Homo sapiens, UniProt Q04912); assay: biochemical; details: read-out: % enzyme activity, 1 μM; Run 1, Run 2
SIK3 = SIK3 (Homo sapiens, UniProt Q9Y2K2); assay: biochemical; details: read-out: % enzyme activity, 1 μM; Run 1, Run 2
SLK/STK2 = SLK/STK2 (Homo sapiens, UniProt Q9H2G2); assay: biochemical; details: read-out: % enzyme activity, 1 μM; Run 1, Run 2
SRPK1 = SRPK1 (Homo sapiens, UniProt Q96SB4); assay: biochemical; details: read-out: % enzyme activity, 1 μM; Run 1, Run 2

SMILES: COc1cc(-c2cncc(-c3ccc(N4CCN(C(C)C)CC4)cc3)c2C)cc(F)c1C(N)=O [Compound 26b, 2-Fluoro-4-(5-(4-(4-isopropylpiperazin-1-yl)phenyl)-4-methylpyridin-3-yl)-6-methoxybenzamide]
- % enzyme activity (CAMKK1): 88.83%
- % enzyme activity (DYRK3): 92.56%
- % enzyme activity (EPHA1): 97.40%
- % enzyme activity (EPHB3): 92.25%
- % enzyme activity (ERK7/MAPK15): 89.98%
- % enzyme activity (ERN1/IRE1): 96.56%
- % enzyme activity (GRK4): 90.10%
- % enzyme activity (GSK3a): 100.51%
- % enzyme activity (LKB1): 92.06%
- % enzyme activity (MLCK/MYLK): 106.15%
- % enzyme activity (NIM1): 93.25%
- % enzyme activity (P38a/MAPK14): 99.05%
- % enzyme activity (p70S6K/RPS6KB1): 94.87%
- % enzyme activity (PAK3): 89.47%
- % enzyme activity (PASK): 89.01%
- % enzyme activity (PIM3): 106.04%
- % enzyme activity (PKAcb): 98.30%
- % enzyme activity (PKCnu/PRKD3): 144.24%
- % enzyme activity (RAF1): 84.08%
- % enzyme activity (SBK1): 96.20%
- % enzyme activity (TAOK3/JIK): 65.47%
- % enzyme activity (WNK3): 90.95%
- remaining activity at 1 µM (ABL1): 84.5%
- remaining activity at 1 µM (BMX/ETK): 103%
- remaining activity at 1 µM (CDK6/cyclin D3): 89.5%
- remaining activity at 1 µM (CSK): 94.1%
- remaining activity at 1 µM (ERK5/MAPK7): 99.6%
- remaining activity at 1 µM (GCK/MAP4K2): 68.2%
- remaining activity at 1 µM (HIPK4): 104%
- remaining activity at 1 µM (JAK2): 95.8%
- remaining activity at 1 µM (MAPKAPK5/PRAK): 96.1%
- remaining activity at 1 µM (MEKK1): 89.4%
- remaining activity at 1 µM (MRCKb/CDC42BPB): 97%
- remaining activity at 1 µM (MSK2/RPS6KA4): 96%
- remaining activity at 1 µM (PIM2): 98%
- remaining activity at 1 µM (PKCa): 88.3%
- remaining activity at 1 µM (PKCeta): 96.8%
- remaining activity at 1 µM (PKCtheta): 103%
- remaining activity at 1 µM (PLK3): 96%
- remaining activity at 1 µM (RON/MST1R): 114%
- remaining activity at 1 µM (SIK3): 72.6%
- remaining activity at 1 µM (SLK/STK2): 106%
- remaining activity at 1 µM (SRPK1): 105%
